From PMC11589570, “Critical assessment of LC3/GABARAP ligands used for degrader development and ligandability of LC3/GABARAP binding pockets” (Nature Communications, 2024)
Values joined by “and” are separate entries in the source; they are usually repeats but may differ in a detail not shown here. Equal entries are not always repeated. The source gives many values for each of these; only a part stands here.

Tested on: RPE1 cells
Assay: Cell growth assay (IncuCyte confluence over 72 h)
Format: cell-based
Conditions: listed as 10O5
Experimental: Cell growth assay: Cell confluence (phase) from RPE1 (hTERT RPE-1, ATCC CLR_4000) or U2OS (ATCC, HTB-96) cell lines were monitored over time with the IncuCyte S3 (Sartiorius, Germany) in 384-well plates in 50 ul DMEM media, supplemented with 10% Fetal Bovine Serum (FBS) 1% penicillin/Streptomycin and incubated 24 h before treatment. Experiment was performed as described in Cano-Franco et al.. 50 μl of media containing either 2× final concentration of indicated compounds in or control compounds (final conc.: 0.1% DMSO, 250 nM Torin1, 200 ng/mL Bafilomycin) were added and images were taken every two hours over 72 h. Cell confluence is represented as % of area covered by cells. Each data point represents the average ratio or confluence obtained from three individual wells of the plate.

O=C1Nc2ccc(I)cc2C1=Cc1cc(Br)c(O)c(Br)c1 [compound 4]
RPE1 cell growth (100 nM, 12 h): 31 and 19 and 23
RPE1 cell growth (100 nM, 14 h): 31 and 19 and 26
RPE1 cell growth (100 nM, 16 h): 34 and 20 and 27
RPE1 cell growth (100 nM, 18 h): 37 and 21 and 27
RPE1 cell growth (100 nM, 20 h): 39 and 23 and 29
RPE1 cell growth (100 nM, 22 h): 42 and 24 and 31
RPE1 cell growth (100 nM, 24 h): 43 and 26 and 33
RPE1 cell growth (100 nM, 26 h): 49 and 28 and 35
RPE1 cell growth (100 nM, 28 h): 53 and 31 and 37
RPE1 cell growth (100 nM, 32 h): 62 and 38 and 41
RPE1 cell growth (100 nM, 34 h): 65 and 39 and 48
RPE1 cell growth (100 nM, 36 h): 67 and 44 and 48
RPE1 cell growth (100 nM, 38 h): 72 and 49 and 51
RPE1 cell growth (100 nM, 44 h): 86 and 61
RPE1 cell growth (100 nM, 46 h): 88 and 62 and 64
RPE1 cell growth (100 nM, 48 h): 92 and 64 and 72
RPE1 cell growth (100 nM, 50 h): 94 and 68 and 72
RPE1 cell growth (100 nM, 54 h): 97 and 80 and 83
RPE1 cell growth (100 nM, 58 h): 99 and 87 and 88
RPE1 cell growth (100 nM, 60 h): 99 and 91 and 89
RPE1 cell growth (100 nM, 62 h): 99 and 90 and 93
RPE1 cell growth (100 nM, 64 h): 100 and 94
RPE1 cell growth (100 nM, 66 h): 100 and 97 and 96
RPE1 cell growth (100 nM, 68 h): 100 and 99 and 98
RPE1 cell growth (100 nM, 70 h): 100 and 98 and 99
RPE1 cell growth (100 nM, 72 h): 100 and 99
RPE1 cell growth (500 nM, 12 h): 38 and 25 and 23
RPE1 cell growth (500 nM, 14 h): 40 and 24
RPE1 cell growth (500 nM, 16 h): 42 and 26
RPE1 cell growth (500 nM, 18 h): 44 and 28 and 27
RPE1 cell growth (500 nM, 20 h): 45 and 29 and 28
RPE1 cell growth (500 nM, 22 h): 46 and 35 and 30
RPE1 cell growth (500 nM, 24 h): 51 and 34 and 33
RPE1 cell growth (500 nM, 26 h): 55 and 36 and 35
RPE1 cell growth (500 nM, 28 h): 60 and 41 and 37
RPE1 cell growth (500 nM, 32 h): 67 and 46 and 43
RPE1 cell growth (500 nM, 34 h): 71 and 48
RPE1 cell growth (500 nM, 36 h): 74 and 53 and 50
RPE1 cell growth (500 nM, 38 h): 78 and 55 and 52
RPE1 cell growth (500 nM, 44 h): 88 and 68 and 64
RPE1 cell growth (500 nM, 46 h): 90 and 71 and 68
RPE1 cell growth (500 nM, 48 h): 92 and 76 and 74
RPE1 cell growth (500 nM, 50 h): 95 and 78 and 76
RPE1 cell growth (500 nM, 54 h): 97 and 85
RPE1 cell growth (500 nM, 58 h): 98 and 91
RPE1 cell growth (500 nM, 60 h): 99 and 94 and 92
RPE1 cell growth (500 nM, 62 h): 99 and 95
RPE1 cell growth (500 nM, 64 h): 99 and 97 and 96
RPE1 cell growth (500 nM, 66 h): 100 and 98
RPE1 cell growth (500 nM, 68 h): 99 and 98
RPE1 cell growth (500 nM, 70 h): 100 and 99
RPE1 cell growth (500 nM, 72 h): 100 and 99
RPE1 cell growth (1 uM, 12 h): 28 and 23
RPE1 cell growth (1 uM, 14 h): 25 and 30 and 24
RPE1 cell growth (1 uM, 16 h): 26 and 32 and 27
RPE1 cell growth (1 uM, 18 h): 28 and 34
RPE1 cell growth (1 uM, 20 h): 30 and 33
RPE1 cell growth (1 uM, 22 h): 30 and 38 and 33
RPE1 cell growth (1 uM, 24 h): 33 and 42 and 36
RPE1 cell growth (1 uM, 26 h): 35 and 42 and 37
RPE1 cell growth (1 uM, 28 h): 35 and 46 and 39
RPE1 cell growth (1 uM, 32 h): 43 and 53 and 48
RPE1 cell growth (1 uM, 34 h): 45 and 57 and 48
RPE1 cell growth (1 uM, 36 h): 50 and 58 and 53
RPE1 cell growth (1 uM, 38 h): 53 and 65 and 55
RPE1 cell growth (1 uM, 42 h): 60 and 71 and 61
RPE1 cell growth (1 uM, 44 h): 63 and 78 and 69
RPE1 cell growth (1 uM, 46 h): 68 and 79 and 70
RPE1 cell growth (1 uM, 48 h): 73 and 85
RPE1 cell growth (1 uM, 50 h): 75 and 88 and 77
RPE1 cell growth (1 uM, 54 h): 83 and 93 and 85
RPE1 cell growth (1 uM, 58 h): 89 and 97 and 90
RPE1 cell growth (1 uM, 60 h): 91 and 98 and 92
RPE1 cell growth (1 uM, 62 h): 92 and 99 and 95
RPE1 cell growth (1 uM, 64 h): 96 and 99
RPE1 cell growth (1 uM, 66 h): 97 and 100
RPE1 cell growth (1 uM, 68 h): 99 and 100 and 98
RPE1 cell growth (1 uM, 70 h): 99 and 100
RPE1 cell growth (1 uM, 72 h): 100 and 99
RPE1 cell growth (3 uM, 14 h): 32 and 25 and 24
RPE1 cell growth (3 uM, 16 h): 34 and 28 and 25
RPE1 cell growth (3 uM, 18 h): 35 and 29 and 26
RPE1 cell growth (3 uM, 20 h): 35 and 30 and 28
RPE1 cell growth (3 uM, 22 h): 40 and 34 and 31
RPE1 cell growth (3 uM, 24 h): 42 and 36 and 32
RPE1 cell growth (3 uM, 26 h): 45 and 41 and 35
RPE1 cell growth (3 uM, 28 h): 49 and 39 and 36
RPE1 cell growth (3 uM, 32 h): 56 and 47 and 44
RPE1 cell growth (3 uM, 34 h): 59 and 49 and 46
RPE1 cell growth (3 uM, 36 h): 62 and 51 and 50
RPE1 cell growth (3 uM, 38 h): 66 and 56 and 52
RPE1 cell growth (3 uM, 42 h): 73 and 60 and 58
RPE1 cell growth (3 uM, 44 h): 76 and 68 and 62
RPE1 cell growth (3 uM, 46 h): 80 and 70 and 66
RPE1 cell growth (3 uM, 48 h): 84 and 73 and 70
RPE1 cell growth (3 uM, 50 h): 87 and 77 and 73
RPE1 cell growth (3 uM, 54 h): 90 and 85 and 81
RPE1 cell growth (3 uM, 56 h): 93 and 88 and 84
RPE1 cell growth (3 uM, 58 h): 94 and 90 and 87
RPE1 cell growth (3 uM, 60 h): 95 and 93 and 89
RPE1 cell growth (3 uM, 62 h): 97 and 94 and 91
RPE1 cell growth (3 uM, 64 h): 97 and 94
RPE1 cell growth (3 uM, 66 h): 98 and 95
RPE1 cell growth (3 uM, 68 h): 98 and 99 and 96
RPE1 cell growth (3 uM, 70 h): 99 and 98
RPE1 cell growth (3 uM, 72 h): 99 and 100
RPE1 cell growth (5 uM, 12 h): 32 and 21 and 25
RPE1 cell growth (5 uM, 14 h): 35 and 21 and 27
RPE1 cell growth (5 uM, 16 h): 37 and 23 and 28
RPE1 cell growth (5 uM, 18 h): 37 and 23 and 29
RPE1 cell growth (5 uM, 20 h): 38 and 25 and 32
RPE1 cell growth (5 uM, 22 h): 39 and 29 and 33
RPE1 cell growth (5 uM, 24 h): 44 and 30 and 35
RPE1 cell growth (5 uM, 26 h): 47 and 32 and 37
RPE1 cell growth (5 uM, 28 h): 50 and 33 and 39
RPE1 cell growth (5 uM, 30 h): 54 and 36 and 42
RPE1 cell growth (5 uM, 32 h): 55 and 40 and 45
RPE1 cell growth (5 uM, 34 h): 61 and 40 and 48
RPE1 cell growth (5 uM, 36 h): 64 and 44 and 51
RPE1 cell growth (5 uM, 38 h): 67 and 47 and 54
RPE1 cell growth (5 uM, 40 h): 47 and 51 and 57
RPE1 cell growth (5 uM, 42 h): 72 and 52 and 60
RPE1 cell growth (5 uM, 44 h): 78 and 57 and 64
RPE1 cell growth (5 uM, 46 h): 80 and 60 and 67
RPE1 cell growth (5 uM, 48 h): 84 and 65 and 71
RPE1 cell growth (5 uM, 50 h): 87 and 68 and 73
RPE1 cell growth (5 uM, 52 h): 89 and 76
RPE1 cell growth (5 uM, 54 h): 92 and 76 and 81
RPE1 cell growth (5 uM, 56 h): 93 and 78 and 83
RPE1 cell growth (5 uM, 58 h): 95 and 82 and 87
RPE1 cell growth (5 uM, 60 h): 97 and 87 and 89
RPE1 cell growth (5 uM, 62 h): 98 and 89 and 92
RPE1 cell growth (5 uM, 64 h): 98 and 92 and 93
RPE1 cell growth (5 uM, 66 h): 99 and 94 and 95
RPE1 cell growth (5 uM, 68 h): 99 and 96
RPE1 cell growth (5 uM, 70 h): 100 and 97
RPE1 cell growth (5 uM, 72 h): 100 and 98
RPE1 cell growth (10 uM, 12 h): 35 and 30 and 26
RPE1 cell growth (10 uM, 14 h): 39 and 30 and 28
RPE1 cell growth (10 uM, 16 h): 39 and 34 and 29
RPE1 cell growth (10 uM, 18 h): 41 and 33 and 31
RPE1 cell growth (10 uM, 20 h): 42 and 36 and 33
RPE1 cell growth (10 uM, 22 h): 43 and 38 and 35
RPE1 cell growth (10 uM, 24 h): 49 and 41 and 35
RPE1 cell growth (10 uM, 26 h): 52 and 41 and 38
RPE1 cell growth (10 uM, 28 h): 52 and 44 and 39
RPE1 cell growth (10 uM, 30 h): 56 and 47 and 42
RPE1 cell growth (10 uM, 32 h): 58 and 50 and 44
RPE1 cell growth (10 uM, 34 h): 60 and 51 and 47
RPE1 cell growth (10 uM, 36 h): 63 and 55 and 49
RPE1 cell growth (10 uM, 38 h): 65 and 57 and 51
RPE1 cell growth (10 uM, 40 h): 50 and 61 and 53
RPE1 cell growth (10 uM, 42 h): 71 and 61 and 56
RPE1 cell growth (10 uM, 44 h): 74 and 65 and 59
RPE1 cell growth (10 uM, 46 h): 76 and 68 and 61
RPE1 cell growth (10 uM, 48 h): 80 and 73 and 64
RPE1 cell growth (10 uM, 50 h): 83 and 75 and 65
RPE1 cell growth (10 uM, 52 h): 84 and 79 and 67
RPE1 cell growth (10 uM, 54 h): 87 and 80 and 70
RPE1 cell growth (10 uM, 56 h): 88 and 84 and 72
RPE1 cell growth (10 uM, 58 h): 91 and 86 and 75
RPE1 cell growth (10 uM, 60 h): 92 and 89 and 77
RPE1 cell growth (10 uM, 62 h): 94 and 90 and 79
RPE1 cell growth (10 uM, 64 h): 95 and 92 and 82
RPE1 cell growth (10 uM, 66 h): 97 and 93 and 83
RPE1 cell growth (10 uM, 68 h): 97 and 95 and 85
RPE1 cell growth (10 uM, 70 h): 98 and 96 and 87
RPE1 cell growth (10 uM, 72 h): 99 and 97 and 88
